Assay results from ChEMBL document CHEMBL1287694, “The synthesis and SAR of novel diarylsulfone 11β-HSD1 inhibitors” (Bioorg Med Chem Lett, 2010).

Legend:
in vivo [1] = details: rat, iv, 0.5 mg/kg
in vivo [2] = details: rat, iv, 0.5 mg/kg; remark: listed apart in the source
in vivo [3] = details: dog, iv, 0.5 mg/kg
in vivo [4] = details: dog, iv, 0.5 mg/kg; remark: listed apart in the source
in vivo [5] = details: cynomolgus monkey, iv, 0.5 mg/kg
in vivo [6] = details: cynomolgus monkey, iv, 0.5 mg/kg; remark: listed apart in the source

Work on `C[C@@H]1CN(CC2(C(N)=O)CC2)CCN1S(=O)(=O)c1ccc([C@](C)(O)C(F)(F)F)cc1` yielded an MRT (in vivo [1]) of 0.8 h.

`C[C@](O)(c1ccc(S(=O)(=O)c2ccc(-c3ccc(C#N)cc3)cc2Cl)cc1)C(F)(F)F` showed a Vd (in vivo [2]) of 3 L/kg, an MRT (in vivo [1]) of 7.2 h and a Vd (in vivo [3]) of 1.7 L/kg. The MRT (in vivo [4]) was 100 h, the Vd (in vivo [5]) was 1.4 L/kg and the MRT (in vivo [6]) was 6.5 h.
